No constants are given. Whether binding was seen depends on the method and setting. For some of these results: Binding can be weak; no strength is given. Values belong to the binder of their own block, whether it stands above or below them.
Columns and labels:
[1] = molecular target: NQO2 (Genbank ID: J02888) (human) (UniProt P16083); test: Y2H
[2] = molecular target: SNAP25A (Genbank ID: D21267) (human); test: Y2H 1x1 mating, binder AD fusion, target BD fusion
[3] = molecular target: NQO2 (Genbank ID: J02888) (human) (UniProt P16083); test: Y2H 1x1 mating, binder bait column, target prey column
[4] = molecular target: NQO2 (Genbank ID: J02888) (human) (UniProt P16083); test: Y2H 1x1 mating
[5] = molecular target: Fibrinogen (Genbank ID: M58569), S100B interactor (human); test: Y2H 1x1 mating, binder AD fusion, target BD fusion
[6] = molecular target: NQO2 (Genbank ID: J02888) (human) (UniProt P16083); test: Y2H 1x1 mating, binder AD fusion, target BD fusion

Sequences of proteins named here, by UniProt entry; tags and fusion partners are left off. A change or cut given only in a name is not applied to a line headed by its entry.
UniProt P16083: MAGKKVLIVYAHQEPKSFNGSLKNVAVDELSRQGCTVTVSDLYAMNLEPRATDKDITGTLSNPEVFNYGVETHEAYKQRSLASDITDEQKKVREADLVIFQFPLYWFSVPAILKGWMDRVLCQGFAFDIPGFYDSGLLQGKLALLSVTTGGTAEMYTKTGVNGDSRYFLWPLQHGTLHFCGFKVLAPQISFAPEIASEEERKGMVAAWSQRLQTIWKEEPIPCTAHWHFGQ

binding [5]: no binding
binding [6]: no binding
B2: Synphilin (Genbank ID: AF076929) (protein, human, UniProt Q9Y6H5 335-660, looked up)
chain: PHLAADNLDKIHDENGNNLLHIAASQGHAECLQHLTSLMGEDCLNERNTEKLTPAGLAIKNGQLECVRWMVSETEAIAELSCSKDFPSLIHYAGCYGQEKILLWLLQFMQEQGISLDEVDQDGNSAVHVASQHGYLGCIQTLVEYGANVTMQNHAGEKPSQSAERQGHTLCSRYLVVVETCMSLASQVVKLTKQLKEQTVERVTLQNQLQQFLEAQKSEGKSLPSSPSSPSSPASRKSQWKSPDADDDSVAKSKPGVQEGIQVLGSLSASSRARPKAKDEDSDKILRQLLGKEISENVCTQEKLSLEFQDAQASSRNSKKIPLEKR

binding [5]: no binding
binding [6]: no binding
B3: S100A9 (Genbank ID: M26311) (protein, human, UniProt P06702 1-114, looked up)
chain: MTCKMSQLERNIETIINTFHQYSVKLGHPDTLNQGEFKELVRKDLQNFLKKENKNEKVIEHIMEDLDTNADKQLSFEEFIMLMARLTWASHEKMHEGDEGPGHHHKPGLGEGTP

Second part, the binder before the results:

B1: LZIP (Genbank ID: AF029674) (protein, human, UniProt O43889 1-371, looked up)
chain: MELELDAGDQDLLAFLLEESGDLGTAPDEAVRAPLDWALPLSEVPSDWEVDDLLCSLLSPPASLNILSSSNPCLVHHDHTYSLPRETVSMDLESESCRKEGTQMTPQHMEELAEQEIARLVLTDEEKSLLEKEGLILPETLPLTKTEEQILKRVRRKIRNKRSAQESRRKKKVYVGGLESRVLKYTAQNMELQNKVQLLEEQNLSLLDQLRKLQAMVIEISNKTSSSSTCILVLLVSFCLLLVPAMYSSDTRGSLPAEHGVLSRQLRALPSEDPYQLELPALQSEVPKDSTHQWLDGSDCVLQAPGNTSCLLHYMPQAPSAEPPLEWPFPDLFSEPLCRGPILPLQANLTRKGGWLPTGSPSVILQDRYSG
binding [1]: binds
binding [2]: no binding
binding [3]: binds
binding [4]: binds

B4: FHOS (Genbank ID: AF113615) (protein, human, UniProt Q9Y613 964-1164, looked up)
chain: TPQAAREVRIMQFCHTLREFALEYRTCRERVLQQQQKQATYRERNKTRGRMITETEKFSGVAGEAPSNPSVPVAVSSGPGRGDADSHASMKSLLTSRPEDTTHNRRSRGMVQSSSPIMPTVGPSTASPEEPPGSSLPSDTSDEIMDLLVQSVTKSSPRALAARERKRSRGNRKSLRRTLKSGLGDDLVQALGLSKGPGLEV
binding [5]: no binding
binding [6]: no binding

Reference: patent US20030157554A1
